Results are given in words; binding and its absence hold for the method and conditions named. Some binding calls cover weakened binding; strength is not graded here.
Legend:
[1] = target: xPSM (extracellular portion of human PSMA, Tag-xPSM digested with enterokinase, no affinity tags) (human) (UniProt Q04609); assay: phage ELISA on xPSM
[2] = target: PSMA on LNCaP cells (human) (UniProt Q04609); assay: phage binding to LNCaP cells, 10^8 PFU, BRASIL partitioning and titer
[3] = target: Tag-xPSM fusion target protein (human) (UniProt Q04609); assay: phage ELISA, Tag-xPSM immobilised on microtiter plates, 10^10 PFU, absorbance at 410 nm

The chains behind the UniProt entries cited, without tags or fusion partners. Where a name states a change or a piece, a line headed by the entry shows the natural chain unless it says otherwise. Residues count along the entry.
UniProt Q04609: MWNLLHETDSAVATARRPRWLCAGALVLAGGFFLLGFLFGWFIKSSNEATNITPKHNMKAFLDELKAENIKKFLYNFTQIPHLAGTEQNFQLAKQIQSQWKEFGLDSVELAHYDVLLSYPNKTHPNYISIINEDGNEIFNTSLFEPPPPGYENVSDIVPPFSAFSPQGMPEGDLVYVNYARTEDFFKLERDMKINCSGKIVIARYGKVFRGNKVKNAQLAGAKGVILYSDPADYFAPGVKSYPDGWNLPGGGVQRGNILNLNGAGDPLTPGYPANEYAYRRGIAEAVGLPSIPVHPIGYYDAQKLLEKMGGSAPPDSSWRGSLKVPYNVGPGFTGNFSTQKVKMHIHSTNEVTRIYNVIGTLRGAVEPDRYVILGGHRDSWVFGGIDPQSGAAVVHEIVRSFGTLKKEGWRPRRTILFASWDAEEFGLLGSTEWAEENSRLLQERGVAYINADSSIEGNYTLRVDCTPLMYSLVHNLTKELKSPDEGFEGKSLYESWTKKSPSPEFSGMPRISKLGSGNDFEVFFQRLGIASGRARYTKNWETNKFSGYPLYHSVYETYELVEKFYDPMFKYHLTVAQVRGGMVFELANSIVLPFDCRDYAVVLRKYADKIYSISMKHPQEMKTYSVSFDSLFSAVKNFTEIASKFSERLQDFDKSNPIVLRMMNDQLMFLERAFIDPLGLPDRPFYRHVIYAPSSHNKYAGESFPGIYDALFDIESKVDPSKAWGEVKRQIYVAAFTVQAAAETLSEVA
Tag-xPSM fusion target protein: residues 44-750 of Q04609

Measured: binding

CTLVPHTRC (peptide, not shown: large carriers) [R4-C9 phage (M13 phage displaying …)]
binds: all assays above
